The supplement of paper PMC9578143, “Small-Molecule Ebselen Binds to YTHDF Proteins Interfering with the Recognition of N^6-Methyladenosine-Modified RNAs” (ACS Pharmacology & Translational Science, 2022)
Some of the results follow. Plates or batches differ in their baseline, so values are only roughly comparable.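 Hits were defined as a z-score below −3.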

target: T1, YTHDF1 YTH domain (aa 365-554) (UniProt Q9BYJ9); assay: tryptophan fluorescence intensity z-score (mean); higher = higher fluorescence, less quenching (negative = binding / quenching); conditions: 10 µM
T1 sequence (whole entry): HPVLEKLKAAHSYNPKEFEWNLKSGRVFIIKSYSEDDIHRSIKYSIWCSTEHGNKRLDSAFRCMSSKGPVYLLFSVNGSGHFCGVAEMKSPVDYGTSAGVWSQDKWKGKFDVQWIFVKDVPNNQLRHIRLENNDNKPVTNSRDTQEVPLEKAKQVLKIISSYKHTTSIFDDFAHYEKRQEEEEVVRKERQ

Tryptophan fluorescence intensity z-score, inactive:
CN1CCC(=C2c3ccccc3CCc3sccc32)CC1 (plate: M 9-10) -0.931
CN1CCOC(c2ccccc2)c2ccccc2C1 (stereo not given) (plate: M 7-8) 0.462
N=C(N)NCCCCN (plate: M 19-20) 0.469
CCCCNc1ccc(C(=O)OCCN(C)C)cc1 (plate: M 5-6) 0.0189
CC1(C)CC[C@]2(C(=O)O)CC[C@]3(C)C(=CCC4[C@@]5(C)CC[C@@H](O)C(C)(C)C5CC[C@]43C)C2C1 (stereo not given in full) (plate: M 13-14) 0.135
CCN(CC)CCOc1ccc(C(=C(Cl)c2ccccc2)c2ccccc2)cc1 (plate: M 1-2) -0.0283
COc1c2ccoc2cc2oc(=O)ccc12 (plate: M 17-18) 0.203
CN(C)CCOC(c1ccc(Cl)cc1)c1ccccn1 (stereo not given) (plate: M 1-2) 0.353
O=C1CCc2ccc(OCCCCN3CCN(c4cccc(Cl)c4Cl)CC3)cc2N1 (plate: M 11-12) -0.137
C[C@@H]1CC[C@@]23CCC4(C)[C@@](C=CC5[C@@]6(C)CCC(=O)C(C)(C)C6CC[C@]54C)(OC2=O)C3[C@H]1C (stereo not given in full) (plate: M 17-18) 0.251
NC(=O)NC1NC(=O)NC1=O (stereo not given) (plate: M 5-6) 0.213
O=C1C(O)=C([C@H]2CC[C@H](c3ccc(Cl)cc3)CC2)C(=O)c2ccccc21 (plate: M 9-10) -0.0505
CC(=O)OC(C)(C)[C@@H]1Cc2cc3ccc(=O)oc3cc2O1 (plate: M 19-20) 0.304
Cc1ccccc1C(OCCN(C)C)c1ccccc1 (stereo not given) (plate: M 3-4) -0.187
CC(C)=CCc1c2c(c3occ(-c4ccc(O)cc4)c(=O)c3c1O)C=CC(C)(C)O2 (plate: M 15-16) 0.856
COC(=O)C1=C(C)NC(C)=C(C(=O)OCCN(C)Cc2ccccc2)C1c1cccc([N+](=O)[O-])c1 (stereo not given) (plate: M 13-14) 0.455
O=c1cc(-c2ccc(O)cc2)oc2cc(O)ccc12 (plate: M 17-18) -0.129
COC(=O)C1=C(C)NC(C)=C(C(=O)OCC(C)C)C1c1ccccc1[N+](=O)[O-] (stereo not given) (plate: M 11-12) -0.413
CNCCCN1c2ccccc2CCc2ccccc21 (plate: M 1-2) 0.294
O=C(O)[C@]1(O)C[C@@H](O)[C@@H](O)[C@H](O)C1 (plate: M 17-18) 0.47
CC[n+]1c(-c2ccccc2)c2cc(N)ccc2c2ccc(N)cc21 (plate: M 21-22) -0.537
C[n+]1ccccc1C=NO (plate: M 21-22) 0.0331
C=CCSCC=C (plate: M 21-22) 0.67
CC(N)C(=O)OC(C)(C)Cc1ccc(Cl)cc1 (stereo not given) (plate: M 9-10) 0.243
COc1ccc(/C=C/C(=O)c2cc(O)ccc2O)cc1 (plate: M 19-20) 0.121
CCC(C)n1ncn(-c2ccc(N3CCN(c4ccc(OCC5COC(Cn6cncn6)(c6ccc(Cl)cc6Cl)O5)cc4)CC3)cc2)c1=O (stereo not given) (plate: M 11-12) 0.471
Cc1cccc(Nc2ccccc2C(=O)O)c1C (plate: M 7-8) -0.303
COc1c(O)cc2oc3cc(O)c(CC=C(C)C)c(O)c3c(=O)c2c1CC=C(C)C [alpha-MANGOSTIN] (plate: M 19-20) -0.655
CC1(C)S[C@@H]2[C@H](NC(=O)Cc3ccccc3)C(=O)N2[C@H]1C(=O)O (plate: M 3-4) -0.121
CCCCc1nc(Cl)c(CO)n1Cc1ccc(-c2ccccc2-c2nnn[nH]2)cc1 (plate: M 9-10) -0.258
C=CCCCCCCCCC(=O)O (plate: M 11-12) 0.0682
COC(=O)C[C@H]1C(C)(C)[C@@H](OC(C)=O)[C@@H]2CC3C4CC(=O)O[C@@H](c5ccoc5)[C@]4(C)CCC3[C@@]1(C)C2=O (stereo not given in full) (plate: M 13-14) 0.0424
CCN(CC)CCNC(=O)COc1ccc(OC)cc1 (plate: M 7-8) 0.495
CC(C)(C)NCC(O)c1ccc(O)c(CO)c1 (racemic) (plate: M 5-6) -0.151
CC(=O)OCC1=C(C(=O)O)N2C(=O)[C@@H](NC(=O)Cc3cccs3)[C@H]2SC1 (plate: M 1-2) 0.00195
O=C1CCC(N2C(=O)c3ccccc3C2=O)C(=O)N1 (stereo not given) (plate: M 9-10) 0.0571
CC1(C)C[C@@H]2C(=O)CC[C@H]3O[C@]3(C)CC[C@H]21 (plate: M 21-22) 0.538
OC[C@H]1O[C@@](CO)(O[C@H]2O[C@H](CO)[C@@H](O)[C@H](O)[C@H]2O)[C@@H](O[C@H]2O[C@H](CO)[C@@H](O)[C@H](O)[C@H]2O)[C@@H]1O (plate: M 17-18) 0.0199
CC(C)=CCC/C(C)=C/CC/C(C)=C/CC/C(C)=C/CO (plate: M 23-24) 0.505
CCN(CC)Cc1cc(Nc2ccnc3cc(Cl)ccc23)ccc1O (plate: M 1-2) 0.0554
COc1ccc(-c2cc(=O)c3c(O)cc(OC)cc3o2)cc1 (plate: M 21-22) 0.072
O=C(/C=C/C=C/c1ccc2c(c1)OCO2)N1CCCCC1 (plate: M 7-8) 0.00124
CCC(=O)OCC(=O)[C@@]1(OC(=O)CC)[C@@H](C)C[C@H]2[C@@H]3CCC4=CC(=O)C=C[C@]4(C)[C@@]3(Cl)[C@@H](O)C[C@@]21C (plate: M 1-2) -0.535
O=C(O)CN(CCN(CC(=O)O)CC(=O)O)CCN(CC(=O)O)CC(=O)O (plate: M 13-14) 0.508
COc1ccc(-c2cc(=O)c3c(OC)c(OC)c(OC)cc3o2)cc1OC (plate: M 19-20) -0.529
CC(C)NCC(O)c1cc(O)cc(O)c1 (stereo not given) (plate: M 3-4) -0.0333
COc1ccc2c(c1)O[C@H]1c3ccc(OC)cc3OC[C@@H]21 (plate: M 15-16) 0.599
CC1COc2c(N3CCN(C)CC3)c(F)cc3c(=O)c(C(=O)O)cn1c23 (stereo not given) (plate: M 7-8) -0.189
O=C(O)CCCC[C@@H]1SC[C@@H]2NC(=O)N[C@@H]21 (plate: M 7-8) -0.163
C[C@H](CCC(=O)O)[C@H]1CC[C@H]2[C@@H]3CC[C@@H]4C[C@H](O)CC[C@]4(C)[C@H]3CC[C@]12C (plate: M 17-18) 0.221
CC(=O)O[C@@H]1CC2C(C)(C)C(=O)CC[C@]2(C)C2CC[C@]3(C)C(=CC(=O)O[C@H]3c3ccoc3)[C@@]21C (stereo not given in full) (plate: M 21-22) -0.0333
CC(=O)O[C@H]1C[C@@H](OC(C)=O)C(C)(C)C2CC(=O)[C@]3(C)C(CC[C@@]4(C)[C@H](c5ccoc5)OC(=O)[C@H]5O[C@]543)[C@]21C (stereo not given in full) (plate: M 13-14) -0.016
OCCN1C[C@H](O)[C@@H](O)[C@H](O)[C@H]1CO (plate: M 9-10) -0.273
O=C(O)c1nc2cc(Cl)c(Cl)cc2nc1O (plate: M 21-22) 0.157
CC(=O)OCC[N+](C)(C)C (plate: M 1-2) -0.445
Cn1cnc([N+](=O)[O-])c1Sc1ncnc2[nH]cnc12 (plate: M 1-2) -0.0378
CC(C)C(=O)Nc1ccc([N+](=O)[O-])c(C(F)(F)F)c1 (plate: M 7-8) 0.00302
NCC[C@H](O)C(=O)N[C@@H]1C[C@H](N)[C@@H](O[C@H]2O[C@H](CN)[C@@H](O)[C@H](O)[C@H]2O)[C@H](O)[C@H]1O[C@H]1O[C@H](CO)[C@@H](O)[C@H](N)[C@H]1O (plate: M 1-2) -0.0746
COc1ccc2c(c1)OC[C@@H](Cc1ccc(OC)c(OC)c1)[C@H]2O (plate: M 21-22) 0.96
CC(C)=CCOc1cc2oc(=O)ccc2cc1O (plate: M 13-14) 0.635
Cc1cc2nc3c(=O)[nH]c(=O)nc-3n(CC(O)C(O)C(O)COP(=O)(O)O)c2cc1C (stereo not given) (plate: M 11-12) 0.539
COc1cc(/C=C/C(=O)CC(=O)/C=C/c2ccc(O)c(OC)c2)ccc1O (plate: M 19-20) -0.505
CN1CCC(OC(c2ccccc2)c2ccccc2)CC1 (plate: M 3-4) -0.384
O=C(Oc1cccc2cccnc12)c1ccccc1 (plate: M 11-12) -0.256
C/C=C1\[C@H]2C=C(C)C[C@]1(N)c1ccc(=O)[nH]c1C2 (plate: M 19-20) -0.0264
C[N+](C)(C)CCO.[Cl-] (plate: M 9-10) -0.397
C[C@H]1COc2c(N3CCN(C)CC3)c(F)cc3c(=O)c(C(=O)O)cn1c23 (plate: M 9-10) -0.831
CN(C)CCCN1c2ccccc2CCc2ccccc21 (plate: M 3-4) 0.307
C=C1CCC2C(CC2(C)C)C(=O)CCC1O (stereo not given) (plate: M 21-22) 0.443
NC(CO)C(=O)NNCc1ccc(O)c(O)c1O (stereo not given) (plate: M 1-2) 0.00717

3 records drawn at random from those above:
Tryptophan fluorescence intensity z-score, inactive:
C[C@@H]1CC[C@@]23CCC4(C)[C@@](C=CC5[C@@]6(C)CCC(=O)C(C)(C)C6CC[C@]54C)(OC2=O)C3[C@H]1C (stereo not given in full) (plate: M 17-18) 0.251
CCCCNc1ccc(C(=O)OCCN(C)C)cc1 (plate: M 5-6) 0.0189
CC(N)C(=O)OC(C)(C)Cc1ccc(Cl)cc1 (stereo not given) (plate: M 9-10) 0.243
